Values after ≈ are worked out from the molar mass of the structure shown.
Test system: S. aureus 8588
Assay: Effectiveness against S. aureus 8588 (absorbance, Mueller-Hinton broth)
Assay type: cell-based
Conditions: Staphylococcus aureus
From the text: The absorbance readings of treatments above the MIC were similar to the negative control of Mueller-Hinton broth alone indicating no bacterial growth.
The absorbance readings of the phage K treated wells were similar to the negative control Mueller-Hinton broth alone.

CC1(C)S[C@@H]2[C@H](NC(=O)[C@H](N)c3ccccc3)C(=O)N2[C@H]1C(=O)O [ampicillin]
MIC: 20 µg/mL (≈ 57.2 µM)
